Results as given in PMC4973349.
These are yes or no findings as the source states them, for the method shown. In cells and extracts the contact can be indirect. Some results given as binding are weak or reduced against the parent protein; the word gives no strength.

Protein sequences, listed by entry. Tags and fused reporters are not part of them.
UniProt P01100: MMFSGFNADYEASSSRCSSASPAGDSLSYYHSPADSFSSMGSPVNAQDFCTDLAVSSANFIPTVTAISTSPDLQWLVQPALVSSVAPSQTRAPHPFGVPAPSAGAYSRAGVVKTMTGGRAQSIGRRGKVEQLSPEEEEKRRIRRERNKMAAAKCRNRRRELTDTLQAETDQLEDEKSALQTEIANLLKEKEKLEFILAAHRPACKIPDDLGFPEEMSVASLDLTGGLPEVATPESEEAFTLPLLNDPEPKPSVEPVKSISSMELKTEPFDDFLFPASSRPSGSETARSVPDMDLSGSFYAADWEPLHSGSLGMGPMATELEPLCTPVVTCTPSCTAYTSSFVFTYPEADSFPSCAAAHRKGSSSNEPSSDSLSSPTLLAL
UniProt Q04206: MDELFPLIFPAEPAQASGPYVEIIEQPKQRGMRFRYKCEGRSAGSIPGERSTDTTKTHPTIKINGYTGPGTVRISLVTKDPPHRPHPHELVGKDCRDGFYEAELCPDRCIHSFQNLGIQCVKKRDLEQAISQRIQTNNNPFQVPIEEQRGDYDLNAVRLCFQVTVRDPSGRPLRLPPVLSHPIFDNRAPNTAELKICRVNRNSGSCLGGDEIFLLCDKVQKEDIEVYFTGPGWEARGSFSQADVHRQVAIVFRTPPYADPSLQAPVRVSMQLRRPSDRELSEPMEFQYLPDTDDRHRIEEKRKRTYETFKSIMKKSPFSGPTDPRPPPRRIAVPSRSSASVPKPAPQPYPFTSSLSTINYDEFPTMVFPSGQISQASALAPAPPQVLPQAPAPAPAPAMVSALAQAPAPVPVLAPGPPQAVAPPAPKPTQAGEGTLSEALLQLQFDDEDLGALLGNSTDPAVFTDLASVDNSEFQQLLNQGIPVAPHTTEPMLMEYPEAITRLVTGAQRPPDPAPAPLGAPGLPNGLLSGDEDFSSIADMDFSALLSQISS

Key:
[1] = target: c-Fos (human (endogenous in KGN)) (UniProt P01100); experiment: co-IP; control and treated (PMA) KGN cells lysed in RIPA buffer, sonicated, pre-cleared; immunoprecipitated overnight with rabbit antibodies against NFkB p65 or c-Fos, protein A magnetic beads; western blot probed with an FHL2 antibody
[2] = target: NFκB P65 (human (endogenous in KGN)) (UniProt Q04206); experiment: as above

B1: four and a half LIM domains 2 (FHL2) (protein, UniProt Q14192 1-279)
chain: MTERFDCHHCNESLFGKKYILREESPYCVVCFETLFANTCEECGKPIGCDCKDLSYKDRHWHEACFHCSQCRNSLVDKPFAAKEDQLLCTDCYSNEYSSKCQECKKTIMPGTRKMEYKGSSWHETCFICHRCQQPIGTKSFIPKDNQNFCVPCYEKQHAMQCVQCKKPITTGGVTYREQPWHKECFVCTACRKQLSGQRFTARDDFAYCLNCFCDLYAKKCAGCTNPISGLGGTKYISFEERQWHNDCFNCKKCSLSLVGRGFLTERDDILCPDCGKDI
binding [1]: binds
binding [2]: binds
